Earlier results, collected in patent US10960008B2, “Methods for treating PTEN deficient epithelial cancers using a combination of anti-PI3KBETA and anti-immune checkpoint agents” (Dana-Farber Cancer Institute, Inc., priority 2016, dated 2021).
For at least one compound, name, drawing or mass did not settle the structure.

System: Pan-PI3K
Conditions: adapted from selleckchem.com; cited from earlier work

SMILES: COC[C@H]1OC(=O)c2coc3c2[C@@]1(C)C1=C(C3=O)[C@@H]2CCC(=O)[C@@]2(C)C[C@H]1OC(C)=O [Wortmannin]
- IC50: 3 nM
